Counter-ions that a name gives are not always drawn. Some of the results follow. Hit calls seldom repeat between salt and free forms of one compound.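 Kinases were expressed as nanoluciferase fusions in K562 cells and luminescence was read every 4 h between 2 and 18 h as percent of control, DMSO set to 100% and a positive control to 0%. A time point counts as decreased when the signal drops significantly (2 sigma). The hit call is the authors' own, does not follow from the count of time points alone, and its rule is not shown.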
The compounds below were run against CDK9 (UniProt P50750) (assay: number of time points (of 4; 2 h point missing) at which kinase-Nluc abundance scored as decreased, DMSO-normalised (count); higher = more persistent destabilization). Settings: 2.5 µM; K562; 2-18 h.

The chains behind the UniProt entries cited, without tags or fusion partners.
UniProt P50750, whole entry: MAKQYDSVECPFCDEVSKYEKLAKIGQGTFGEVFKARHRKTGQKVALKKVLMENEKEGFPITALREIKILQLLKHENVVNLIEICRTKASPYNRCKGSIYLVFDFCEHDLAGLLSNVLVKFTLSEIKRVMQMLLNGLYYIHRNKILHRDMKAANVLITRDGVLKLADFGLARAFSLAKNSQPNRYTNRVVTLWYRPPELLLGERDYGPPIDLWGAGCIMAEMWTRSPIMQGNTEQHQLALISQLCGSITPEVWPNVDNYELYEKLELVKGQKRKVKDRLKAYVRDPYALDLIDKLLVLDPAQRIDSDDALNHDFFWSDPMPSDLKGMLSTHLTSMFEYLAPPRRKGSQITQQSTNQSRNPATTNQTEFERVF

Compound	number of time points
CN1CCN(c2ccc3nc(-c4c(N)c5c(F)cccc5[nH]c4=O)[nH]c3c2)CC1 [Dovitinib (lactate)]	0
C=CC(=O)N1CCC[C@@H](n2nc(-c3ccc(Oc4ccccc4)cc3)c3c(N)ncnc32)C1 [Ibrutinib]	0
CC1(C)CNc2cc(NC(=O)c3cccnc3NCc3ccncc3)ccc21 [Motesanib (Diphosphate)]	0
CN1CCN(c2ccc3nc(-c4c(N)c5c(F)cccc5[nH]c4=O)[nH]c3c2)CC1 [Dovitinib]	0
Cc1cnc(Nc2ccc(OCCN3CCCC3)cc2)nc1Nc1cccc(S(=O)(=O)NC(C)(C)C)c1 [Fedratinib]	0
Cc1cc(C)n2c1C=C1C=CC(CCC(=O)NCCN3CCN(C/C=C/C(=O)N4CCCC(n5nc(-c6ccc(Oc7ccccc7)cc6)c6c(N)ncnc65)C4)CC3)=[N+]1[B-]2(F)F (centres undefined)	0
Nc1ncnc2c1c(-c1cnc3[nH]ccc3c1)nn2C1CCCC1	4
COc1cc(Nc2c(C#N)cnc3cc(OCCCN4CCN(C)CC4)c(OC)cc23)c(Cl)cc1Cl [Bosutinib]	0
Nc1nc(Nc2ccc(S(N)(=O)=O)cc2)nn1C(=O)c1c(F)cccc1F	0
COc1ccc(-c2cc3nccn3c(Nc3ncccc3C(N)=O)n2)cc1OC [BAY 61-3606 (dihydrochloride)]	0
NC(=O)c1c(OCc2c(F)cc(Br)cc2F)nsc1NC(=O)NCCCCN1CCCC1	0
Cc1[nH]c(/C=C2\C(=O)Nc3ccc(F)cc32)c(C)c1C(=O)NC[C@H](O)CN1CCOCC1	0
CCc1cc2c(cc1-c1cnn(CC(=O)N(C)C)c1)C(C)(C)c1[nH]c3cc(C#N)ccc3c1C2=O	0
CC1(C)CNc2cc(NC(=O)c3cccnc3NCc3ccncc3)ccc21 [Motesanib]	0
COc1cc(N2CCC(N3CCN(C)CC3)CC2)ccc1Nc1ncc(Cl)c(Nc2ccccc2S(=O)(=O)C(C)C)n1	0

2 entries from above, reformatted.
Compound | number of time points
NC(=O)c1c(OCc2c(F)cc(Br)cc2F)nsc1NC(=O)NCCCCN1CCCC1 | 0
Cc1[nH]c(/C=C2\C(=O)Nc3ccc(F)cc32)c(C)c1C(=O)NC[C@H](O)CN1CCOCC1 | 0

Same assay, conditions: 10 µM; K562; 2-18 h

Compound	number of time points
O=C(Nc1cccc(Cl)c1)Nc1ncc(CCNc2ncnc3ccsc23)s1 [SNS-314 (mesylate)]	0
COc1nccc(-c2c(-c3ccc(F)cc3)ncn2C2CCNCC2)n1	0
CCCCCCCCCCCCc1ccc(S(=O)(=O)Nc2nncs2)cc1	0
C[C@@H]1CN(C(=O)Nc2ccc(-c3nc(N4CCOCC4)c4cnn(CCCCCCC(=O)NO)c4n3)cc2)CCO1 [HDACs/mTOR Inhibitor 1]	0
N#CC(=Cc1cc(Cl)cc(Cl)c1)c1cccnc1	0
C=CC(=O)N(C)CCOc1c(N)ncnc1-c1cc(F)cc(NC(=O)c2ccc(C3CC3)cc2F)c1C [Remibrutinib]	0
C=CC(=O)Nc1cc2c(Nc3ccc(F)c(Cl)c3)ncnc2cc1OCCCN1CCOCC1 [Canertinib]	0
C=CC(=O)N1CCC([C@@H]2CCNc3c(C(N)=O)c(-c4ccc(Oc5ccccc5)cc4)nn32)CC1 [Zanubrutinib]	0
Nc1ncccc1-c1nc2ccc(-c3ccccc3)nc2n1-c1ccc(C2(N)CCC2)cc1 [Miransertib]	0
CCOc1nc(NC(=O)Cc2cc(OC)ccc2OC)cc(N)c1C#N [JNK Inhibitor VIII]	0
COc1cc2ncnc(Nc3ccc(F)c(Cl)c3)c2cc1OCCCN1CCOCC1 [Gefitinib]	0
C[C@@]1(C(=O)Nc2ccc(F)nc2)CCCN1c1nc(Nc2cc(C3CC3)n[nH]2)c2cccn2n1	0
CCn1c(=O)c(-c2cc(NC(=O)Nc3ccccc3)c(F)cc2Br)cc2cnc(NC)cc21 [Ripretinib]	1
C[C@H]1Oc2cc(cnc2N)-c2c(nn(C)c2C#N)CN(C)C(=O)c2ccc(F)cc21 [Lorlatinib]	0
C[C@@H]1O[C@@H](Oc2c(-c3ccc(O)c(O)c3)oc3cc(O)cc(O)c3c2=O)[C@H](O)[C@H](O)[C@H]1O [Quercitrin]	0
Cc1ccc(Nc2nccc(N(C)c3ccc4c(C)n(C)nc4c3)n2)cc1S(N)(=O)=O [Pazopanib (Hydrochloride)]	0
C=CC(=O)N1C[C@@H](Nc2ncnc3[nH]ccc23)CC[C@H]1C [(2R,5S)-Ritlecitinib]	0
CCCCCC1CC1CC1CC1CCCCCCCC(=O)OC (centres undefined)	0
O=c1ncn2nc(Sc3ccc(F)cc3F)ccc2c1-c1c(Cl)cccc1Cl [Neflamapimod]	0
COc1ccc(-c2cc(C(=O)NN=C(C)c3ccc(OC)c(OC)c3)[nH]n2)cc1	0
NC1(C(=O)N[C@@H](CCO)c2ccc(Cl)cc2)CCN(c2nc[nH]c3nccc2-3)CC1 [Capivasertib]	0
O=C(NCCCNc1nc(Nc2cccc(CN3CCOCC3)c2)ncc1C1CC1)C1CCC1	0
CC(C)(C)n1nc(-c2ccc(Cl)cc2)c2c(N)ncnc21	0
Cn1cc(/C=C2\C(=O)Nc3cccnc32)c2ccccc21	0

From the supplement of paper PMC12823440, “Inhibitors supercharge kinase turnover through native proteolytic circuits” (Nature, 2025)
